Experimental data reported in PMC10905880.
These are yes or no findings as the source states them, for the method shown. For some of these results: Binding can be weak; no strength is given.

Tests used:
Assay in all cases: two-hybrid; OsCYCDs in pGBKT7 (BD), OsRBRs and OsCDKAs in pGADT7 (AD), co-transformed into AH109; growth on SD/-Ade/-His/-Trp/-Leu with 5 mM 3-AT, 30 C
[1] = molecular target: OsCYCD7;1 (rice (Oryza sativa L. spp. japonica, Nipponbare))
[2] = molecular target: OsCYCD4;2 (rice (Oryza sativa L. spp. japonica, Nipponbare))
[3] = molecular target: OsCYCD2;3 (rice (Oryza sativa L. spp. japonica, Nipponbare))
[4] = molecular target: OsCYCD2;2 (rice (Oryza sativa L. spp. japonica, Nipponbare))
[5] = molecular target: OsCYCD1;2 (rice (Oryza sativa L. spp. japonica, Nipponbare))
[6] = molecular target: OsCYCD3;1 (rice (Oryza sativa L. spp. japonica, Nipponbare))
[7] = molecular target: OsCYCD4;1 (rice (Oryza sativa L. spp. japonica, Nipponbare))
[8] = molecular target: OsCYCD1;1 (rice (Oryza sativa L. spp. japonica, Nipponbare))
[9] = molecular target: OsCYCD5;1 (rice (Oryza sativa L. spp. japonica, Nipponbare))
[10] = molecular target: OsCYCD3;2 (rice (Oryza sativa L. spp. japonica, Nipponbare))
[11] = molecular target: OsCYCD6;1 (rice (Oryza sativa L. spp. japonica, Nipponbare))
[12] = molecular target: OsCYCD2;1 (rice (Oryza sativa L. spp. japonica, Nipponbare))
[13] = molecular target: OsCYCD5;3 (rice (Oryza sativa L. spp. japonica, Nipponbare))
[14] = molecular target: OsCYCD5;2 (rice (Oryza sativa L. spp. japonica, Nipponbare))

B1: OsRBR1 (protein, UniProt Q84QM3 1-1010)
chain: MEGAAPPASSGSEVTGAGSGKVDAGGGAAMEERFADLCKSKLGLDESITRQAMQLFKESKSILLSSMSSLGSGSPEEIERFWSAFVLYCVSRLGKAGKGKEDGGISLCQILRAFSLNIVDFFKEMPQFCIKVGSVLAGLYGSDWEKRLELKELQANVVHLSLLSRYYKRAYQELFLLNDAKPPENSAEPNAQASDYYRFGWLLFLVLRIQTFSRFKDLVTSTNGLVSVLAVLIVHIPVRLRNFNIKESSSFAKKSDKGVNLIASLCEKYHTSEDELSKAIEKTNTLIVDILKKKPCPAASECQQDRLSFIDPEGLTYFKNLLEEDSLKLSLLMLEKEYENAINTKGELDERMFANDEDSLLGSGSLSGGAINLPGTKRKYDVMASPAKSITSPSPMSPPRFCASPTGNGYCSSKMAPITPVSTAMTTAKWLRSTISPLPSKPSGELLRFFSACDKDVTDDITRRAGIILGAIFTSSSFGERICTSVRSTNRIDAIWTEQRKMEALKLYYRVLESMCRAETQILSGNNLTSLLSNERFHRCMIACSAELVLATHKTVTMMFPAVLEKTGITAFDLSKVIESFVRHEDTLPRELKRHLNSLEERLLESMAWEKGSSMYNSLIVARPTLSAEINRLGLLAEPMPSLDAIAAHHNISLEGLPPLPFQKQEHSPDKDEVRSPKRACTERRNVLVDNNSFRSPVKDTLKSKLPPLQSAFLSPTRPNPAAGGELCAETGIGVFLSKIAKLAAIRIRGLCERLQLSQQVLERVYSLVQQIIIQQTALFFNRHIDQIILCSIYGVAKISQLALTFKEIIFGYRKQSQCKPQVFRSVYVHWASRSRNGKTGEDHVDIITFYNEVFIPTVKPLLVELGSGTSPNKKNEEKCAADGPYPESPRLSRFPNLPDMSPKKVSAAHNVYVSPLRTSKMDTLLSPSSKSYYACVGESTHAFQSPSKDLKVINNRLNSGKKVSGRLNFDVVSDLVVARSLSDQNSASAAATTADIATKTPVKLEQPDC
binding [1]: no binding | binding [2]: no binding | binding [3]: no binding | binding [4]: binds | binding [5]: binds | binding [6]: no binding | binding [7]: no binding | binding [8]: binds | binding [9]: binds | binding [10]: binds | binding [11]: no binding | binding [12]: no binding | binding [13]: binds | binding [14]: binds

B2: OsRBR2 (protein, UniProt Q2R374 1-978)
chain: MASQPPAAVEARLADLCKELGVDEGVAGEAAAVLEEGKGALLASPSFGSKSPEDAEKLCFAFVLYCVSKLKETKAGSSGVRLWEILKGCKLKYDDFFKESQRLASRIDQVLGSRYGSDWEARLELKQLENLVNLLADASRFYCKAFNELFLSPSTDQEPGSTTNIPDYIRFGWLLFLILRSKSPELFKDLVSCIHGLVAILAILLIHVPAKFRSFTIEGSSHLIKQTEKGVDLLPSLCHNYHTSEDRLKEMMGKSYKVIEVFFSRKAINASEFKTVNLDKIDTDGLMYFKDLVDDEIFQSNLEKLEKLSSTTGCQGELDLEMFLTSNDYVLNAENSSGSSANFGCSKRVFETLASPTKTIKNMLAAPSSPSSPANGGSIKIVQMTPVTSAMTTAKWLRDVISSLPDKPSSKLEEFLSSCDTDLTSDVVKRVSIILEAIFPTKSIDRGTSIGLNCANAFDIPWAEARKMEASKLYYRVLEAICRAESQNNNVNNLTPLLSNERFHRCLIACSAELVLATHKTVIMMFPAVLESTGLTAFDLSKIIENFVRHEETLPRELKRHLNSLEEQLLESMSWEKGSSLYNSLVVARPSLSTEINSLGLLAEPMPSLDGIVARQSIHPDGLPPTPSKRWPSAGPDGNCYPQSPKRLCTESRNSLVERNSQTPPPKQSQTGLSILKAKYHPLQATFASPTVSNPVSGNEKCAVVGVQIFFSKILKLAAIRIRNLCERLRHEELTVSVYNIFKQILDQQTALFFNRHVDQIILCCLYGVAKVSQLSLTFKEIVNNYKREPQCKPEVFRSIFVGSTNRNGGFGSRHVDIIVFYNQVFVPTVKPLLVALMPSSTRPEDKRNTNSQIPGSPKSSPFSNLPDMSPKKVSSSHNVYVSPLRQTKMDALLSPSSRSFYACIGESTQAFQSPSKDLAAINSRLNYPTRRINTRINFDMVSDSVVAGSLGQPNGGSASSDPAAAFSPLSKKSKTDS
binding [1]: no binding | binding [2]: no binding | binding [3]: binds | binding [4]: no binding | binding [5]: binds | binding [6]: binds | binding [7]: binds | binding [8]: binds | binding [9]: binds | binding [10]: binds | binding [11]: no binding | binding [12]: binds | binding [13]: binds | binding [14]: binds
